PubChem BioAssay AID686938 – Drosophila RNAi Screening Center, 2013
The screen tested about 23,000 reagents; shown is a random part of those that have a named target and a result. In the full data, 75 (0.33%) are marked active. 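Raw plate signals without normalisation; calls rest on plate z-scores that were not deposited; ratio present for only 364 wells.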 Names joined by + are all predicted targets of the reagent. No sequences are given here. Not stated in the record: the dose of the treatment.

Test: 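Looking for CRAC channel components and the factors controlling them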 (primary screen)
Cells: Drosophila S2R+ cells
Reagents: long dsRNA against Drosophila genes, about 0.25 µg dsRNA per well, roughly 10,000 cells
Time to read-out: 5 days of knock-down before the calcium assay
Treatment: thapsigargin (SERCA pump blocker) to empty calcium stores; entry signal taken 4 min after adding it
Measured: 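Duplicate raw fluo-4 intensities per well from a plate reader, at rest and four minutes after thapsigargin emptied calcium stores; entry-to-rest ratio filled for only some wells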
Scale: calcium entry signal: higher = stronger calcium signal after store depletion; entry to resting ratio: higher = more calcium entry relative to resting level; resting calcium signal: higher = higher resting calcium signal
Hit rule: 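Called when the plate z-score of the entry-to-rest ratio, mean of duplicates, falls below −3; wells with low overall dye signal (Fmax z below −2) or more than five off-targets excluded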
Meaning of the calls: active = strongly reduced calcium entry; inactive = no strong reduction

Target gene,amplicon,"calcium entry signal, replicate 1 (fluorescence units)","calcium entry signal, replicate 2 (fluorescence units)",entry to resting ratio,"resting calcium signal, replicate 1 (fluorescence units)","resting calcium signal, replicate 2 (fluorescence units)",call
Alms1b + Alms1a,DRSC18559,3.76e7,3.83e7,,1.80e7,1.86e7,inactive
rdog,DRSC14431,2.64e7,3.29e7,,1.23e7,1.65e7,inactive
RNASEK,DRSC21641,2.92e7,3.87e7,,1.83e7,2.57e7,active
CG1999,DRSC18199,4.27e7,4.35e7,,1.89e7,2.11e7,inactive
Srp54k,DRSC11289,2.78e7,3.93e7,,1.54e7,2.02e7,inactive
Rh4 + sina,DRSC11396,2.28e7,3.50e7,,1.16e7,2.49e7,inactive
CG33521,DRSC17179,3.11e7,3.32e7,,1.52e7,1.29e7,inactive
CG33521,DRSC17211,3.51e7,4.85e7,2,1.78e7,1.98e7,inactive
CG33521,DRSC22919,3.61e7,3.35e7,,1.82e7,1.55e7,inactive
Zif,DRSC12514,4.07e7,4.89e7,,1.72e7,1.93e7,inactive
CG31797,DRSC02476,4.52e7,5.76e7,,2.19e7,2.38e7,inactive
CG31797,DRSC02477,4.66e7,5.36e7,,2.14e7,2.20e7,inactive
CG11630,DRSC03696,3.66e7,4.52e7,,1.90e7,2.04e7,inactive
CG15725,DRSC19691,3.85e7,5.38e7,,1.86e7,2.36e7,inactive
yip3,DRSC04724,1.90e7,2.47e7,,1.22e7,1.14e7,inactive
Ndae1,DRSC00975,2.72e7,3.70e7,,1.38e7,1.52e7,inactive
Ndae1,DRSC02770,3.78e7,,,2.04e7,,inactive
CG10098,DRSC12509,4.20e7,5.19e7,,1.88e7,2.42e7,inactive
Elp1,DRSC14250,2.82e7,3.04e7,,1.30e7,1.41e7,inactive
Cpr62Bb,DRSC08404,3.66e7,3.56e7,,1.86e7,1.79e7,inactive
Cpr67Fa1,DRSC10932,2.57e7,3.48e7,,1.48e7,1.57e7,inactive
Hn,DRSC11184,5.58e7,4.47e7,,3.65e7,1.85e7,inactive
angel,DRSC04670,4.03e7,,,2.04e7,,inactive
angel,DRSC21326,2.60e7,3.03e7,,1.25e7,1.35e7,inactive

Records listed so far whose target name starts with N or n (2):
Target gene,amplicon,"calcium entry signal, replicate 1 (fluorescence units)","calcium entry signal, replicate 2 (fluorescence units)",entry to resting ratio,"resting calcium signal, replicate 1 (fluorescence units)","resting calcium signal, replicate 2 (fluorescence units)",call
Ndae1,DRSC00975,2.72e7,3.70e7,,1.38e7,1.52e7,inactive
Ndae1,DRSC02770,3.78e7,,,2.04e7,,inactive
